Measurements from “University of Dundee, Small-Polar-MMV Screening Library” (2021), ChEMBL document CHEMBL3988442.

Mtb growth Cornell: 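Whole-cell assay for inhibitors of Mycobacterium tuberculosis growth, labelled Cornell in the record; the read-out is not stated. The concentration is filed as 10 mM, unlikely as a test dose, so the dose is not known. The record gives no direction; compounds strong in two other growth screens of this library score well above the rest, so higher reads as stronger inhibition. Of about 53,000 compounds tested this way, about 900 (1.7%) reached 50% or more in at least one test.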
Mtb heat-shock: 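Assay on Mycobacterium tuberculosis, filed only as a heat shock assay from Cornell; the read-out is not stated. The concentration is filed as 10 mM, unlikely as a test dose, so the dose is not known. The record gives no direction; compounds that gave an IC50 in retests scored well above the rest, so higher reads as stronger inhibition. Of about 69,000 compounds tested this way, about 930 (1.4%) reached 50% or more in at least one test.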

Values are the deposited “Percent Effect”, in %. The controls that fix the scale are not given in the record; negative values are as filed. The compounds are a random part of those screened. A dash means the value is not listed here; it may have been measured.

compound: Cc1nc[nH]c1-c1nccn1CCN1CCOC1=O
Mtb growth Cornell: 3.507%
Mtb heat-shock: 11.96%

compound: COCC(=O)N1CCN(c2cc(C)nc(C3CCCN3C(C)=O)c2)CC1 (stereo unspecified)
Mtb heat-shock: -1.251%

compound: Cc1nc(NC(=O)NCCCN2CCC(C(N)=O)CC2)sc1C
Mtb growth Cornell: -4.396%
Mtb heat-shock: -7.83%

compound: Cc1ccccc1C(C(=O)NCCn1cccc1)N(C)C (stereo unspecified)
Mtb growth Cornell: 41.29%
Mtb heat-shock: -23.02%

compound: Cc1cccc(Cn2c(=O)[nH]c3csnc3c2=O)c1
Mtb growth Cornell: 5.368%
Mtb heat-shock: -26.97%

compound: CCC(CC)C(=O)NCCc1ccn(-c2ccccc2)n1
Mtb heat-shock: -13.44%

compound: CC(C)NC1CC2(CCNCC2)c2cc(F)ccc21.Cl.Cl (stereo unspecified)
Mtb growth Cornell: -2.827%
Mtb heat-shock: 3.317%

compound: O=C(c1ccco1)N1CCCC(c2cc(C(F)(F)F)n3ncnc3n2)C1 (stereo unspecified)
Mtb growth Cornell: -49.04%
Mtb heat-shock: -23.16%

compound: Cc1csc(N2CCN(CC(=O)NC3CCOCC3)CC2C)n1 (stereo unspecified)
Mtb heat-shock: 1.453%

compound: CCCC(O)CN1CCC(=O)N(CCOC)Cc2cc3c(cc21)OCO3 (stereo unspecified)
Mtb growth Cornell: -27.98%
Mtb heat-shock: 26.79%

compound: CCOC(=O)CSc1nnc([C@@H](N)C(C)CC)o1.Cl (stereo partly specified)
Mtb growth Cornell: 42.83%
Mtb heat-shock: -17.57%

compound: O=C(CNC(=O)C1CCCC1)NCC(O)c1ccc2ccccc2c1 (stereo unspecified)
Mtb heat-shock: 1.504%

compound: CC(Oc1ccc(F)cc1F)C(=O)N1CCC2(CCCO2)CC1 (stereo unspecified)
Mtb growth Cornell: 4.043%
Mtb heat-shock: 17.37%

compound: CCC(C)(C)n1nnnc1C(c1cccs1)N1CCCCC1 (stereo unspecified)
Mtb growth Cornell: 33.43%
Mtb heat-shock: -14.35%

compound: O=C(O)C(F)(F)F.O=C(O)C(F)(F)F.O=C(O)C(F)(F)F.[H][C@@]12CN(Cc3cccnc3)CCO[C@]1([H])CN(Cc1ccc(OC)cc1)C2
Mtb growth Cornell: 5.273%
Mtb heat-shock: -4.336%

compound: Cc1cccc(CNC(Cn2cncn2)c2ccccc2)c1C (stereo unspecified)
Mtb growth Cornell: 23.9%
Mtb heat-shock: -0.4219%

compound: Cc1noc(C2CCCN(C(=O)c3ccc(N(C)C)nc3)C2)n1 (stereo unspecified)
Mtb heat-shock: 11.88%

compound: [H][C@]12CC[C@]([H])(CC(=O)NC1)N2C(=O)Cc1ccsc1
Mtb heat-shock: 3.595%

compound: Cc1ccc(CN2CCCn3c(nc(Cn4cncn4)cc3=O)C2)s1
Mtb growth Cornell: -10.04%
Mtb heat-shock: 0.5458%

compound: CC(=O)c1c(C)nn(CC(=O)Nc2ccc(Br)cc2)c1C
Mtb growth Cornell: 109.5%
Mtb heat-shock: 105.9%

compound: O=C(CC1CCCO1)N1CCCN(c2cccnn2)CC1 (stereo unspecified)
Mtb growth Cornell: 25.65%
Mtb heat-shock: -4.827%

compound: CC(CN1CCCCCC1)NCc1cc(-c2ccco2)on1 (stereo unspecified)
Mtb growth Cornell: 10.89%
Mtb heat-shock: 9.229%

compound: CC(C)COCc1cncc2c1CCN(Cc1cnn(C)c1)C2.O=C(O)C(F)(F)F.O=C(O)C(F)(F)F
Mtb growth Cornell: -41.78%
Mtb heat-shock: 0.8534%

compound: Cc1cc(C)nc(N2CCCC2c2[nH]ncc2C(=O)N(C)C)n1 (stereo unspecified)
Mtb growth Cornell: 11.99%
Mtb heat-shock: -11.94%

compound: Cc1nc(CN2CCC3(CCN(c4ncc(F)cn4)C3)C2=O)cs1.O=C(O)C(F)(F)F (stereo unspecified)
Mtb growth Cornell: -14.23%
Mtb heat-shock: 1.698%

compound: CCn1cc(CN2CCCC(c3[nH]ncc3-c3ccc(F)cc3)C2)cn1 (stereo unspecified)
Mtb growth Cornell: 9.472%
Mtb heat-shock: -10.78%

compound: Cc1csc(NC(=O)c2cccnc2N2CCOCC2)n1
Mtb growth Cornell: 2.235%
Mtb heat-shock: -9.494%

compound: CCCNC(c1ccc(F)cc1)c1cccnc1.Cl.Cl (stereo unspecified)
Mtb growth Cornell: 15.56%
Mtb heat-shock: 5.955%

compound: Cc1cc(C)nc(N2CCCC(c3cccc(-n4ccnc4)n3)C2)n1 (stereo unspecified)
Mtb heat-shock: 68.58%

compound: Cc1cnn(CC(C)NCc2ccc(OCc3cscn3)cc2)c1 (stereo unspecified)
Mtb growth Cornell: 20.64%
Mtb heat-shock: -17.03%

compound: CC(C)c1n[nH]c(C2CN(C(=O)c3ccnc(C4CC4)n3)CCO2)n1 (stereo unspecified)
Mtb heat-shock: -10.97%

compound: CCCc1cc(C(=O)N[C@@H](CO)[C@@H](O)c2ccccc2)n(C)n1
Mtb heat-shock: 5.848%

compound: CC(=O)NCc1noc2c1CN(Cc1ccsc1)CC2
Mtb growth Cornell: 22.99%
Mtb heat-shock: 0.9381%

compound: CC(=O)N1CCN(C(=O)Cn2ccc3c(Cl)cccc32)CC1
Mtb growth Cornell: -6.046%
Mtb heat-shock: -10.3%

compound: CS(=O)(=O)N1CCC2(CC1)CC(CC(=O)NCC1CC1)c1ccccc12 (stereo unspecified)
Mtb heat-shock: -4.731%

compound: O=C(O)C(F)(F)F.O=C(O)C(F)(F)F.[H][C@@]12COC[C@]1(COc1cccnc1)CN(Cc1cccs1)C2
Mtb growth Cornell: -27.81%
Mtb heat-shock: 2.521%

compound: CCn1cc(CN(C)C(=O)C(c2ccccc2C)N(C)C)cn1 (stereo unspecified)
Mtb heat-shock: -3.78%

compound: CN(Cc1ccccc1NCc1cscn1)C(=O)c1cccs1
Mtb growth Cornell: 46.15%
Mtb heat-shock: -11.49%

compound: Cc1nc(NC(=O)NCc2cccnc2NCCN(C)C)sc1C
Mtb growth Cornell: -7.147%
Mtb heat-shock: -35.03%

compound: Cc1cc(C)c(CNC(=O)NCC(O)c2ccccc2)c(=O)[nH]1 (stereo unspecified)
Mtb growth Cornell: -9.296%
Mtb heat-shock: -3.19%

Once more, the final 4:

compound	Mtb growth Cornell	Mtb heat-shock
CCn1cc(CN(C)C(=O)C(c2ccccc2C)N(C)C)cn1 (stereo unspecified)	-	-3.78%
CN(Cc1ccccc1NCc1cscn1)C(=O)c1cccs1	46.15%	-11.49%
Cc1nc(NC(=O)NCc2cccnc2NCCN(C)C)sc1C	-7.147%	-35.03%
Cc1cc(C)c(CNC(=O)NCC(O)c2ccccc2)c(=O)[nH]1 (stereo unspecified)	-9.296%	-3.19%